# In patent publication CN114409766A:
# By UniProt entry, the sequences of proteins in these tests, tags left out. Residues count along the entry.
# UniProt P03200, residues 1-860: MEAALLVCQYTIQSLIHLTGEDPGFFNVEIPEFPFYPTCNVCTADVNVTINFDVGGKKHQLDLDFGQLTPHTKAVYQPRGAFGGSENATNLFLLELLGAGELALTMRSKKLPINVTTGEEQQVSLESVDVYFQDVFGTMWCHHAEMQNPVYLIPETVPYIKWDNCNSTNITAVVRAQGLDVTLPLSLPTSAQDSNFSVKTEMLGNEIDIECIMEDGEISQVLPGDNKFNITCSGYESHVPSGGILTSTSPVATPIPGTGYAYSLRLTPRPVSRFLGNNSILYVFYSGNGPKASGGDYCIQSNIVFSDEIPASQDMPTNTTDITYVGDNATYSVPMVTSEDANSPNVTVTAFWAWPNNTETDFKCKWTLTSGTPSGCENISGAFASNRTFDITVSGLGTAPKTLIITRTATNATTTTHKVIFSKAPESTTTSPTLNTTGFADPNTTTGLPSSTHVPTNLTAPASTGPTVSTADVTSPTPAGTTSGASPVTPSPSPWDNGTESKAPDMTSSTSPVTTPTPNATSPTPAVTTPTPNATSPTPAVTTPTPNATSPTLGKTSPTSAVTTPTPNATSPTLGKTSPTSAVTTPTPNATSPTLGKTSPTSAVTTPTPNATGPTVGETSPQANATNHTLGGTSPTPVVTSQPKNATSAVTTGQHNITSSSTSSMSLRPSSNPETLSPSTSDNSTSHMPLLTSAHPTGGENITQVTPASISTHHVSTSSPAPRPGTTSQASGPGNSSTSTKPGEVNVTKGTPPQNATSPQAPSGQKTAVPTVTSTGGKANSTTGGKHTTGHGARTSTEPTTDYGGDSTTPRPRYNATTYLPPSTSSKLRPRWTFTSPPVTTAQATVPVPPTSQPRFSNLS
# UniProt P20023, residues 21-971: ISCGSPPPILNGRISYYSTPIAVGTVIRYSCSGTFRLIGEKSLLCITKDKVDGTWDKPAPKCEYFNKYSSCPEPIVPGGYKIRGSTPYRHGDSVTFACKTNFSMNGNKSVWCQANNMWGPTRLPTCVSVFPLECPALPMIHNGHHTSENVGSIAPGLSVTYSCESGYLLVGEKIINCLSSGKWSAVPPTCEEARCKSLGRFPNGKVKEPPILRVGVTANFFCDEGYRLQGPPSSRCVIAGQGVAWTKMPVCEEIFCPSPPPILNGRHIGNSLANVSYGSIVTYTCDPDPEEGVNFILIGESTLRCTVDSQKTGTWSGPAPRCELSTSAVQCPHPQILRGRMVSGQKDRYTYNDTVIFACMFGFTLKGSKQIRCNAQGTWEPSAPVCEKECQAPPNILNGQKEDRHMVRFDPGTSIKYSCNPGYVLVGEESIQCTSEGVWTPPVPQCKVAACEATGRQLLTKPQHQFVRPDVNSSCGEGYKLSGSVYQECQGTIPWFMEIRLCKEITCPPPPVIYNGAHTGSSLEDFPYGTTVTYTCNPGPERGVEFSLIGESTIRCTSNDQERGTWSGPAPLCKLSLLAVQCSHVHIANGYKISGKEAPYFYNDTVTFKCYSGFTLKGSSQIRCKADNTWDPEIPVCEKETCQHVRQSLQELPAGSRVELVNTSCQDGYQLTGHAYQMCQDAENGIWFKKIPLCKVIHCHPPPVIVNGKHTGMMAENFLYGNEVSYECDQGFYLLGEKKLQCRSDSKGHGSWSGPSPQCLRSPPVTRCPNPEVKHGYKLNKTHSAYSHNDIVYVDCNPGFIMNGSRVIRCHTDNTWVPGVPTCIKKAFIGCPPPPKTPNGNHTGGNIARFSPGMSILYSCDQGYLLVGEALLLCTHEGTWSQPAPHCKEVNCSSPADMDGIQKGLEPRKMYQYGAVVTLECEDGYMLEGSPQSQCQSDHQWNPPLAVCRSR
# No constants are given. Whether binding was seen depends on the method and setting. Some binding calls cover weakened binding; strength is not graded here.
# Biological target: gp350-hFc (Epstein-Barr virus) (UniProt P03200)
# Assay: ELISA, gp350-hFc coated, titrated binder
substance,measurement,value
重组CR2蛋白 (from UniProt P20023 21-971) (receptor),binding,binds
